Assay [1] deals with T1, FLAG-tagged mouse Ly6H (mouse) (UniProt Q9WUC3).
T1 sequence (chain, GPI anchor (removed from the cell surface by PI-PLC)): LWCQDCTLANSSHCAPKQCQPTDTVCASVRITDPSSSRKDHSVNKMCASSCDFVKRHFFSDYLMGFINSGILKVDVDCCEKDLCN
The experiment in a line: co-IP; TARO-YFP cells transfected with FLAG-tagged Ly6 proteins; lysis in 50 mM Tris-HCl pH 7.4, 150 mM NaCl, 10% glycerol, 1% Triton X-100, 2% n-octyl-β-D-glucopyranoside; immunoprecipitation with anti-FLAG M2 and Protein G magnetic beads; western blot with anti-GFP.

The chains behind the UniProt entries cited, without tags or fusion partners. Residues count along the entry.
UniProt P36544, residues 23-502: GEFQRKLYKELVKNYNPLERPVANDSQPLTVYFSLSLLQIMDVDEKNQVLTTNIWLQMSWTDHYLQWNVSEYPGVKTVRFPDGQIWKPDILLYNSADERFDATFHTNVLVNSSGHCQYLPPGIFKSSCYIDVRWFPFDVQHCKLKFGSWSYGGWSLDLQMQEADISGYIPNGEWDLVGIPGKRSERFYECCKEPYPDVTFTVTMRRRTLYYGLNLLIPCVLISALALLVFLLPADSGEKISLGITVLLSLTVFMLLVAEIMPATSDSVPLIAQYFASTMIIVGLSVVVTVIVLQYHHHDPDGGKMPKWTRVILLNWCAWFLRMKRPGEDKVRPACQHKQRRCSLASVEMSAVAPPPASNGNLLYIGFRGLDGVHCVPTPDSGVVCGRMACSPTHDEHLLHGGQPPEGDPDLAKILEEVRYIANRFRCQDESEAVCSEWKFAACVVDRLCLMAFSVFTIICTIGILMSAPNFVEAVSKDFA

Assay [2] addresses T2, FLAG-tagged mouse Ly6H R38A mutant (mouse) (UniProt Q9WUC3).
T2 sequence: T1 sequence (chain, GPI anchor (removed from the cell surface by PI-PLC)) with R38A
The assay is described as above.

This note sets out measurements from PMC7371702.

Where a chain is given by its changes, count along the chain named. No constants are given. Whether binding was seen depends on the method and setting. Binding seen in cells or lysates may run through a third protein. Some results given as binding are weak or reduced against the parent protein; the word gives no strength. Tags and fused reporters may be left off the sequences shown.

Turning to “YFP-tagged α7 nicotinic acetylcholine receptor (human CHRNA7 with YFP fused into the M3-M4 loop) (from UniProt P36544 23-502)”, the binding result in assay [1] is recorded as “binds”; in assay [2], “no binding”.
